Measurements as given in the supplement of paper PMC6078165.
Values are relative to the signal before dosing, not to a vehicle control; the signal also falls without drug.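 The tumor cells are basal-like or mesenchymal-like triple-negative breast cancer lines cultured without fibroblasts. Reduced red signal indicates lost mitochondrial integrity, serving as a proxy for apoptotic death.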

Experiments:
Experiment in all cases: relative JC-1 red fluorescence (viability) vs pre-drug, monoculture (fraction); higher = more viable cancer cells
Settings in all cases: coculture fibroblast: none (monoculture)
BT20 = system: BT20
Procedure: (§1)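 JC-1 labelled TNBC cells grown in monoculture (density kept equal with unlabelled cancer cells) in 384-well plates in FluoroBrite medium, treated with one of 42 anticancer drugs at 0.1, 1, 10 or 100 uM. JC-1 red fluorescence (mitochondrial integrity, surrogate of apoptotic death) was read by plate reader every 8 h for 72 h. Values are normalised to each well's pre-drug value, with background from alamethicin. The stock of one drug was tenfold lower, so its dose labels may be too high. Monoculture values are repeated alongside each fibroblast plate and are averaged here.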

Hs578T = system: Hs578T
Procedure: as §1

MDAMB468 = system: MDAMB468
Procedure: as §1

MDAMB231 = system: MDAMB231
Procedure: as §1

CS(=O)(=O)CCNCc1ccc(-c2ccc3ncnc(Nc4ccc(OCc5cccc(F)c5)c(Cl)c4)c3c2)o1 [Lapatinib]
relative JC-1 red fluorescence
Settings | 8 h | 16 h | 24 h | 32 h | 40 h | 48 h | 56 h | 64 h | 72 h
BT20, 0.1 µM | 0.93 | 0.882 | 0.784 | 0.7206 | 0.6864 | 0.6549 | 0.6263 | 0.5942 | 0.584
BT20, 1 µM | 0.923 | 0.8346 | 0.775 | 0.715 | 0.682 | 0.66 | 0.627 | 0.6028 | 0.5847
BT20, 10 µM | 0.9323 | 0.827 | 0.724 | 0.668 | 0.637 | 0.612 | 0.581 | 0.549 | 0.527
BT20, 100 µM | 0.9378 | 0.891 | 0.8334 | 0.758 | 0.727 | 0.699 | 0.665 | 0.643 | 0.62
Hs578T, 0.1 µM | 0.8424 | 0.771 | 0.6915 | 0.6494 | 0.604 | 0.573 | 0.5503 | 0.55307 | 0.542
Hs578T, 1 µM | 0.882 | 0.757 | 0.718 | 0.671 | 0.625 | 0.5995 | 0.5692 | 0.552 | 0.539
Hs578T, 10 µM | 0.873 | 0.794 | 0.715 | 0.724 | 0.708 | 0.693 | 0.684 | 0.678 | 0.66
Hs578T, 100 µM | 0.883 | 0.798 | 0.773 | 0.739 | 0.687 | 0.665 | 0.624 | 0.605 | 0.587
MDAMB231, 0.1 µM | 0.756 | 0.791 | 0.569 | 0.658 | 0.635 | 0.601 | 0.564 | 0.557 | 0.551
MDAMB231, 1 µM | 0.776 | 0.7483 | 0.6932 | 0.69 | 0.661 | 0.646 | 0.624 | 0.617 | 0.606
MDAMB231, 10 µM | 0.815 | 0.87 | 0.64 | 0.851 | 0.857 | 0.856 | 0.847 | 0.837 | 0.824
MDAMB231, 100 µM | 0.772 | 0.754 | 0.732 | 0.72 | 0.6973 | 0.682 | 0.645 | 0.665 | 0.64
MDAMB468, 0.1 µM | 0.8991 | 0.8531 | 0.808 | 0.7328 | 0.6867 | 0.65496 | 0.6257 | 0.604 | 0.583
MDAMB468, 1 µM | 0.948 | 0.878 | 0.897 | 0.856 | 0.83 | 0.8181 | 0.803 | 0.7847 | 0.764
MDAMB468, 10 µM | 0.849 | 0.752 | 0.721 | 0.724 | 0.732 | 0.799 | 0.782 | 0.733 | 0.705
MDAMB468, 100 µM | 0.943 | 0.906 | 0.887 | 0.811 | 0.769 | 0.76 | 0.726 | 0.702 | 0.695

CC(=O)O[C@H]1C(=O)[C@@]2(C)[C@H]([C@H](OC(=O)c3ccccc3)[C@]3(O)C[C@H](OC(=O)[C@H](O)[C@@H](NC(=O)c4ccccc4)c4ccccc4)C(C)=C1C3(C)C)[C@]1(OC(C)=O)CO[C@@H]1C[C@@H]2O [Paclitaxel]
relative JC-1 red fluorescence
Settings | 8 h | 16 h | 24 h | 32 h | 40 h | 48 h | 56 h | 64 h | 72 h
BT20, 0.1 µM | 0.95 | 0.897 | 0.796 | 0.725 | 0.667 | 0.647 | 0.623 | 0.597 | 0.586
BT20, 1 µM | 0.9507 | 0.9227 | 0.8484 | 0.763 | 0.709 | 0.679 | 0.6484 | 0.6358 | 0.626
BT20, 10 µM | 0.983 | 0.916 | 0.867 | 0.788 | 0.757 | 0.749 | 0.732 | 0.732 | 0.715
Hs578T, 0.1 µM | 0.8638 | 0.724 | 0.679 | 0.597 | 0.565 | 0.558 | 0.53 | 0.539 | 0.543
Hs578T, 1 µM | 0.8543 | 0.71 | 0.617 | 0.5158 | 0.4515 | 0.415 | 0.38 | 0.378 | 0.372
Hs578T, 10 µM | 0.9 | 0.756 | 0.696 | 0.659 | 0.623 | 0.603 | 0.574 | 0.566 | 0.554
MDAMB231, 0.1 µM | 0.754 | 0.687 | 0.718 | 0.671 | 0.641 | 0.644 | 0.641 | 0.682 | 0.683
MDAMB231, 1 µM | 0.823 | 0.835 | 0.763 | 0.791 | 0.752 | 0.743 | 0.722 | 0.615 | 0.656
MDAMB231, 10 µM | 0.861 | 0.815 | 0.799 | 0.771 | 0.726 | 0.709 | 0.682 | 0.703 | 0.698
MDAMB468, 0.1 µM | 0.9115 | 0.852 | 0.745 | 0.678 | 0.617 | 0.575 | 0.542 | 0.495 | 0.468
MDAMB468, 1 µM | 0.899 | 0.837 | 0.795 | 0.731 | 0.684 | 0.6493 | 0.6148 | 0.579 | 0.582
MDAMB468, 10 µM | 0.92 | 0.877 | 0.8416 | 0.79 | 0.731 | 0.7108 | 0.6802 | 0.6518 | 0.6348
